# Assay results published in paper PMC8384837.
# Positions count from the first letter of the chain named. The list shows a part of the results. For some of these results: At the low end of the ranking, values are background and their order means little.
# Columns and labels:
# Details in all cases: yeast three-hybrid, YBZ-1, SC-Leu-His + 0.5 mM 3-AT, 4 days
# [1] = target: T1, PUM1 PUF domain R5-GSK C1007G + R1008S + Q1011K (UniProt Q14671)
# T1 sequence: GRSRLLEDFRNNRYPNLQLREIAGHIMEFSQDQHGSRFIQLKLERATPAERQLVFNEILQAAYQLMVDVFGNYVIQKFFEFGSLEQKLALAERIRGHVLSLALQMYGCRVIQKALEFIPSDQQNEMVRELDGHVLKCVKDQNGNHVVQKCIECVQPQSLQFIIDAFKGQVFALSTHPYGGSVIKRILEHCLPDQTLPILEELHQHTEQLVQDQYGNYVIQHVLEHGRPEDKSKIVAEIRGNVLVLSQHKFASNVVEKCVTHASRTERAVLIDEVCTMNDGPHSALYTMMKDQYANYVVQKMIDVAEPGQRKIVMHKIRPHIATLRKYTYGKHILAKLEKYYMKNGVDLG
# [2] = target: T2, PUM1 PUF domain R5-GSR C1007G + R1008S + Q1011R (Homo sapiens) (UniProt Q14671)
# T2 sequence: T1 sequence with K184R
# [3] = target: T3, PUM1 PUF domain R5-GTQ C1007G + R1008T (Homo sapiens) (UniProt Q14671)
# T3 sequence: T1 sequence with S181T, K184Q
# [4] = target: T4, PUM1 PUF domain R5-GTR C1007G + R1008T + Q1011R (Homo sapiens) (UniProt Q14671)
# T4 sequence: T1 sequence with S181T, K184R
# [5] = target: T5, PUM1 PUF domain R5-GVR C1007G + R1008V + Q1011R (Homo sapiens) (UniProt Q14671)
# T5 sequence: T1 sequence with S181V, K184R
# [6] = target: T6, PUM1 PUF domain R5-HQD C1007H + R1008Q + Q1011D (Homo sapiens) (UniProt Q14671)
# T6 sequence: T1 sequence with G180H, S181Q, K184D
# [7] = target: T7, PUM1 PUF domain R5-HRP C1007H + Q1011P (Homo sapiens) (UniProt Q14671)
# T7 sequence: T1 sequence with G180H, S181R, K184P
# [8] = target: T8, PUM1 PUF domain R5-HRR C1007H + Q1011R (Homo sapiens) (UniProt Q14671)
# T8 sequence: T1 sequence with G180H, S181R, K184R
# [9] = target: T9, PUM1 PUF domain R5-IRP C1007I + Q1011P (UniProt Q14671)
# T9 sequence: T1 sequence with G180I, S181R, K184P
# [10] = target: T10, PUM1 PUF domain R5-ISR C1007I + R1008S + Q1011R (Homo sapiens) (UniProt Q14671)
# T10 sequence: T1 sequence with G180I, K184R
# [11] = target: T11, PUM1 PUF domain R5-KAG C1007K + R1008A + Q1011G (UniProt Q14671)
# T11 sequence: T1 sequence with G180K, S181A, K184G
# [12] = target: T12, PUM1 PUF domain R5-KAL C1007K + R1008A + Q1011L (Homo sapiens) (UniProt Q14671)
# T12 sequence: T1 sequence with G180K, S181A, K184L
# [13] = target: T13, PUM1 PUF domain R5-KAV C1007K + R1008A + Q1011V (UniProt Q14671)
# T13 sequence: T1 sequence with G180K, S181A, K184V
# [14] = target: T14, PUM1 PUF domain R5-KGE C1007K + R1008G + Q1011E (UniProt Q14671)
# T14 sequence: T1 sequence with G180K, S181G, K184E
# [15] = target: T15, PUM1 PUF domain R5-KGG C1007K + R1008G + Q1011G (Homo sapiens) (UniProt Q14671)
# T15 sequence: T1 sequence with G180K, S181G, K184G
# [16] = target: T16, PUM1 PUF domain R5-KGK C1007K + R1008G + Q1011K (UniProt Q14671)
# T16 sequence: T1 sequence with G180K, S181G
# [17] = target: T17, PUM1 PUF domain R5-KGL C1007K + R1008G + Q1011L (Homo sapiens) (UniProt Q14671)
# T17 sequence: T1 sequence with G180K, S181G, K184L
# [18] = target: T18, PUM1 PUF domain R5-KGR C1007K + R1008G + Q1011R (Homo sapiens) (UniProt Q14671)
# T18 sequence: T1 sequence with G180K, S181G, K184R
# [19] = target: T19, PUM1 PUF domain R5-KGV C1007K + R1008G + Q1011V (Homo sapiens) (UniProt Q14671)
# T19 sequence: T1 sequence with G180K, S181G, K184V
# [20] = target: T20, PUM1 PUF domain R5-KGW C1007K + R1008G + Q1011W (Homo sapiens) (UniProt Q14671)
# T20 sequence: T1 sequence with G180K, S181G, K184W
# [21] = target: T21, PUM1 PUF domain R5-KLH C1007K + R1008L + Q1011H (UniProt Q14671)
# T21 sequence: T1 sequence with G180K, S181L, K184H
# [22] = target: T22, PUM1 PUF domain R5-KQG C1007K + R1008Q + Q1011G (UniProt Q14671)
# T22 sequence: T1 sequence with G180K, S181Q, K184G
# [23] = target: T23, PUM1 PUF domain R5-KQL C1007K + R1008Q + Q1011L (Homo sapiens) (UniProt Q14671)
# T23 sequence: T1 sequence with G180K, S181Q, K184L
# [24] = target: T24, PUM1 PUF domain R5-KQM C1007K + R1008Q + Q1011M (Homo sapiens) (UniProt Q14671)
# T24 sequence: T1 sequence with G180K, S181Q, K184M
# [25] = target: T25, PUM1 PUF domain R5-KQR C1007K + R1008Q + Q1011R (Homo sapiens) (UniProt Q14671)
# T25 sequence: T1 sequence with G180K, S181Q, K184R
# [26] = target: T26, PUM1 PUF domain R5-KQV C1007K + R1008Q + Q1011V (UniProt Q14671)
# T26 sequence: T1 sequence with G180K, S181Q, K184V
# [27] = target: T27, PUM1 PUF domain R5-KRA C1007K + Q1011A (Homo sapiens) (UniProt Q14671)
# T27 sequence: T1 sequence with G180K, S181R, K184A
# [28] = target: T28, PUM1 PUF domain R5-KRF C1007K + Q1011F (Homo sapiens) (UniProt Q14671)
# T28 sequence: T1 sequence with G180K, S181R, K184F
# [29] = target: T29, PUM1 PUF domain R5-KRR C1007K + Q1011R (Homo sapiens) (UniProt Q14671)
# T29 sequence: T1 sequence with G180K, S181R, K184R
# [30] = target: T30, PUM1 PUF domain R5-KRW C1007K + Q1011W (UniProt Q14671)
# T30 sequence: T1 sequence with G180K, S181R, K184W
# [31] = target: T31, PUM1 PUF domain R5-KSR C1007K + R1008S + Q1011R (UniProt Q14671)
# T31 sequence: T1 sequence with G180K, K184R
# [32] = target: T32, PUM1 PUF domain R5-KVE C1007K + R1008V + Q1011E (UniProt Q14671)
# T32 sequence: T1 sequence with G180K, S181V, K184E
# [33] = target: T33, PUM1 PUF domain R5-KYF C1007K + R1008Y + Q1011F (UniProt Q14671)
# T33 sequence: T1 sequence with G180K, S181Y, K184F
# [34] = target: T34, PUM1 PUF domain R5-LFR C1007L + R1008F + Q1011R (Homo sapiens) (UniProt Q14671)
# T34 sequence: T1 sequence with G180L, S181F, K184R
# [35] = target: T35, PUM1 PUF domain R5-LKL C1007L + R1008K + Q1011L (UniProt Q14671)
# T35 sequence: T1 sequence with G180L, S181K, K184L
# [36] = target: T36, PUM1 PUF domain R5-LLR C1007L + R1008L + Q1011R (UniProt Q14671)
# T36 sequence: T1 sequence with G180L, S181L, K184R
# [37] = target: T37, PUM1 PUF domain R5-LSR C1007L + R1008S + Q1011R (Homo sapiens) (UniProt Q14671)
# T37 sequence: T1 sequence with G180L, K184R
# [38] = target: T38, PUM1 PUF domain R5-LYA C1007L + R1008Y + Q1011A (UniProt Q14671)
# T38 sequence: T1 sequence with G180L, S181Y, K184A
# [39] = target: T39, PUM1 PUF domain R5-LYL C1007L + R1008Y + Q1011L (Homo sapiens) (UniProt Q14671)
# T39 sequence: T1 sequence with G180L, S181Y, K184L
# [40] = target: T40, PUM1 PUF domain R5-LYS C1007L + R1008Y + Q1011S (Homo sapiens) (UniProt Q14671)
# T40 sequence: T1 sequence with G180L, S181Y, K184S
# [41] = target: T41, PUM1 PUF domain R5-LYV C1007L + R1008Y + Q1011V (Homo sapiens) (UniProt Q14671)
# T41 sequence: T1 sequence with G180L, S181Y, K184V
# [42] = target: T42, PUM1 PUF domain R5-MGR C1007M + R1008G + Q1011R (Homo sapiens) (UniProt Q14671)
# T42 sequence: T1 sequence with G180M, S181G, K184R
# [43] = target: T43, PUM1 PUF domain R5-MSR C1007M + R1008S + Q1011R (Homo sapiens) (UniProt Q14671)
# T43 sequence: T1 sequence with G180M, K184R
sequence,measurement,setting,value
GGCUAGAACUAGUGGAUCCCCCGGCGCCCGGCGGCUCGAGCCCGGGUAAGUGUGAAUAGUCUGCAUGCCGCCGGGCGCCAUGCCUGCAGGUCGACUCUAGAAAACAUG,binding signal (log2 enrichment (interaction score)),[1],-5.03
same,binding signal (log2 enrichment (interaction score)),[2],-3.92
same,binding signal (log2 enrichment (interaction score)),[3],-0.76
same,binding signal (log2 enrichment (interaction score)),[4],-1.42
same,binding signal (log2 enrichment (interaction score)),[5],0.01
same,binding signal (log2 enrichment (interaction score)),[6],-1.37
same,binding signal (log2 enrichment (interaction score)),[7],-0.73
same,binding signal (log2 enrichment (interaction score)),[8],-0.53
same,binding signal (log2 enrichment (interaction score)),[9],-4.6
same,binding signal (log2 enrichment (interaction score)),[10],-2.61
same,binding signal (log2 enrichment (interaction score)),[11],-2.87
same,binding signal (log2 enrichment (interaction score)),[12],-0.16
same,binding signal (log2 enrichment (interaction score)),[13],-4.48
same,binding signal (log2 enrichment (interaction score)),[14],-4.1
same,binding signal (log2 enrichment (interaction score)),[15],-0.84
same,binding signal (log2 enrichment (interaction score)),[16],-3.04
same,binding signal (log2 enrichment (interaction score)),[17],-0.49
same,binding signal (log2 enrichment (interaction score)),[18],-1.26
same,binding signal (log2 enrichment (interaction score)),[19],-1.57
same,binding signal (log2 enrichment (interaction score)),[20],-0.25
same,binding signal (log2 enrichment (interaction score)),[21],< -8.18
same,binding signal (log2 enrichment (interaction score)),[22],-3.92
same,binding signal (log2 enrichment (interaction score)),[23],-0.62
same,binding signal (log2 enrichment (interaction score)),[24],-0.88
same,binding signal (log2 enrichment (interaction score)),[25],-2.21
same,binding signal (log2 enrichment (interaction score)),[26],< -9.9
same,binding signal (log2 enrichment (interaction score)),[27],-1.17
same,binding signal (log2 enrichment (interaction score)),[28],-0.65
same,binding signal (log2 enrichment (interaction score)),[29],-1.72
same,binding signal (log2 enrichment (interaction score)),[30],-2
same,binding signal (log2 enrichment (interaction score)),[31],-2.33
same,binding signal (log2 enrichment (interaction score)),[32],-4.64
same,binding signal (log2 enrichment (interaction score)),[33],-2.7
same,binding signal (log2 enrichment (interaction score)),[34],0
same,binding signal (log2 enrichment (interaction score)),[35],< -8.29
same,binding signal (log2 enrichment (interaction score)),[36],< -5.69
same,binding signal (log2 enrichment (interaction score)),[37],-1.76
same,binding signal (log2 enrichment (interaction score)),[38],-2.94
same,binding signal (log2 enrichment (interaction score)),[39],-0.99
same,binding signal (log2 enrichment (interaction score)),[40],-0.1
same,binding signal (log2 enrichment (interaction score)),[41],0.17
same,binding signal (log2 enrichment (interaction score)),[42],0.42
same,binding signal (log2 enrichment (interaction score)),[43],-3.84

# 4 successive entries from above, quoted:
sequence,measurement,setting,value
GGCUAGAACUAGUGGAUCCCCCGGCGCCCGGCGGCUCGAGCCCGGGUAAGUGUGAAUAGUCUGCAUGCCGCCGGGCGCCAUGCCUGCAGGUCGACUCUAGAAAACAUG,binding signal (log2 enrichment (interaction score)),[3],-0.76
same,binding signal (log2 enrichment (interaction score)),[4],-1.42
same,binding signal (log2 enrichment (interaction score)),[5],0.01
same,binding signal (log2 enrichment (interaction score)),[6],-1.37
